# In publication PMC7819943, “Rice protein-binding microarrays: a tool to detect cis-acting elements near promoter regions in rice”:
# By UniProt entry, the sequences of proteins in these tests, tags left out.
# UniProt Q0JBA9, entry or part of it: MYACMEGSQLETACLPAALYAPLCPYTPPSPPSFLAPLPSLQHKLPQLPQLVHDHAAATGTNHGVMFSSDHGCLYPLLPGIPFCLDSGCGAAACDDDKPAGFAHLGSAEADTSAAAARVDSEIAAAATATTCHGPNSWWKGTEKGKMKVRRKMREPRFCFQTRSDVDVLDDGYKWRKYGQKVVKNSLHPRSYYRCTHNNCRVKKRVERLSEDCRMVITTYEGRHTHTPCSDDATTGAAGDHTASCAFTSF
# Some of the results follow.
# Molecular target: OsWRKY34 (Oryza sativa, UniProt Q0JBA9 1-250)
# Assay: protein-binding microarray (RPBM); PBS, 2% BSA, 51.3 ng/ul salmon testes DNA, 50 uM zinc acetate, 200 nM TF, 25 C, 1 h; high values mean tight binding
# Conditions: protein: recombinant; tags: N-terminal polyhistidine and DsRed monomer fusion (pET32a); label: CyDye5-dUTP incorporated in the synthesized complementary strand; 3' TTTTT single-stranded linker to array surface; dsDNA, one strand shown
# Outline: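 Binding signal is reported as fluorescence intensity per feature (arbitrary units) from an Axon 4000B scanner. Incubation used 200 nM of each Ni–NTA-purified, N-terminally polyhistidine- and DsRed-fused transcription factor from E. coli BL21-CodonPlus on a double-stranded custom Agilent array for 1 h at 25 °C, with 50 µM zinc acetate in the buffer, followed by washing.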
row,Sequence,binding signal
1,GGGGTAATTCGTCCGGTTTGCATAGTTGGGGTGAAGAATGCGGAGTCACCTAGTGCAG,15500 fluorescence intensity (a.u.)
2,GTCGTCCTCGCCGCCGTCGCTCTCACCACCACCACACTATCGGAGTCACCTAGTGCAG,10700 fluorescence intensity (a.u.)
3,CCTTCGTCTCCGCTCGCCTCGCCGTCGCCGTACGTCGCCCCGGAGTCACCTAGTGCAG,8410 fluorescence intensity (a.u.)
4,AATTAATCATCAATCTCTCATTATCTCCTGTTTTCTTCTCCGGAGTCACCTAGTGCAG,10500 fluorescence intensity (a.u.)
5,GGGAAAAAGTAGCGGACCGCACCATCCGATTTCCGCGCCCCGGAGTCACCTAGTGCAG,8300 fluorescence intensity (a.u.)
6,CTCGTCCGTACCTGCCCCGCTTCTACCCAAGCGCCTTCCGCGGAGTCACCTAGTGCAG,9040 fluorescence intensity (a.u.)
7,TCGGAAATTTTCATATCATTTTCATCCTTCGTTACTGACACGGAGTCACCTAGTGCAG,9850 fluorescence intensity (a.u.)
8,GGACGGCGGCGTCCGGGGCCCGATCTCGGGGTGGGTGTGTCGGAGTCACCTAGTGCAG,9510 fluorescence intensity (a.u.)
9,ACCGCCGCGCGCGCCCTAAAACCCCAGCAACCAACCTCTCCGGAGTCACCTAGTGCAG,9750 fluorescence intensity (a.u.)
10,TCCTCAACTCCTCATCCATGCATCGCCTGTCAGCTCTATACGGAGTCACCTAGTGCAG,9330 fluorescence intensity (a.u.)
11,CCTGTGAATAAACTGCTTTTCACAATGACCTGTTTTACTCCGGAGTCACCTAGTGCAG,8130 fluorescence intensity (a.u.)
12,CGCTCCCATCGGCGCACGCGTCCACCCCGGCCGCTCTCCTCGGAGTCACCTAGTGCAG,10100 fluorescence intensity (a.u.)
13,GCCCTTCGAGAGGTTTGTTTCTGCTTCATTTGTCTCCACTCGGAGTCACCTAGTGCAG,8700 fluorescence intensity (a.u.)
14,TATGTAATTGTTATTTATGTGATCGCTTGTGTTGAAGGGGCGGAGTCACCTAGTGCAG,10000 fluorescence intensity (a.u.)
15,CGTTTCACGCTTTACCAGCCTGGCGCGTCGCGTCCGTCCACGGAGTCACCTAGTGCAG,11000 fluorescence intensity (a.u.)
16,ACTTCTACTCAATTACACCTCATCCTTGCATACAAACAAACGGAGTCACCTAGTGCAG,8270 fluorescence intensity (a.u.)
17,CATTTGTGTTCCCATTTGCCGCCTTCTCCTTCTTCTCCGACGGAGTCACCTAGTGCAG,8170 fluorescence intensity (a.u.)
18,CGTTTGCCGCTGCACTGCACTGTTGCCCTCGGCCGCTGGCCGGAGTCACCTAGTGCAG,10800 fluorescence intensity (a.u.)
19,CATTTCTTATTTTGTTTTTGGGCTTTGATGTTTGGTTTCTCGGAGTCACCTAGTGCAG,8740 fluorescence intensity (a.u.)
20,GACGCACCCAATACACTCCAATATGTCCAAAAAATGTTTCCGGAGTCACCTAGTGCAG,8700 fluorescence intensity (a.u.)
21,CGTTAGGGTTTGAGATTGAGAGGGGCGGCGCTGGCGATCGCGGAGTCACCTAGTGCAG,11000 fluorescence intensity (a.u.)
22,TCCACTTCCGCTCGTGCGCCGCGTCGCCTCGTGACCTCCGCGGAGTCACCTAGTGCAG,10700 fluorescence intensity (a.u.)
23,GTGTATCTACCTGCATGCTCTGCAACTTAACATCATGTTCCGGAGTCACCTAGTGCAG,10700 fluorescence intensity (a.u.)
24,GTGGTTTCGCAGGTAGATGGTCTTCTTCCTGTCTGGTAGACGGAGTCACCTAGTGCAG,8210 fluorescence intensity (a.u.)
25,CTCTCTCTCACTCACTCACTCTCCTCTACTAGCTCGTCTCCGGAGTCACCTAGTGCAG,8940 fluorescence intensity (a.u.)
26,ACCGTTCACCATCCATGTCTCCGCGCCCGTGATCGAGCATCGGAGTCACCTAGTGCAG,9640 fluorescence intensity (a.u.)
27,CAAGGACTTGGATATGGTTAGTAAGGGAGAGGGAGGGGTCCGGAGTCACCTAGTGCAG,9010 fluorescence intensity (a.u.)

# Already shown: entries from further up.
row,Sequence,binding signal
6,CTCGTCCGTACCTGCCCCGCTTCTACCCAAGCGCCTTCCGCGGAGTCACCTAGTGCAG,9040 fluorescence intensity (a.u.)
7,TCGGAAATTTTCATATCATTTTCATCCTTCGTTACTGACACGGAGTCACCTAGTGCAG,9850 fluorescence intensity (a.u.)

# The results go on:

row,Sequence,binding signal
1,ATACACTAAGTTTTACATAATTTTCCTTTGTTGTTGTTAACGGAGTCACCTAGTGCAG,8310 fluorescence intensity (a.u.)
2,CGTTCTTGTTCTTGTTCTTGTCCTCCTCTGCTTTAATTTTCGGAGTCACCTAGTGCAG,9410 fluorescence intensity (a.u.)
3,CCATTGGTCTCTTCTTCGATCTACATATGTTTCTTCTGCTCGGAGTCACCTAGTGCAG,10600 fluorescence intensity (a.u.)
4,CCGTGCTTGCCATTTCCACCAACACTTGGACTAGTTACTCCGGAGTCACCTAGTGCAG,10500 fluorescence intensity (a.u.)
5,CTCCTCTCCATCTCCGTCTCCGTCTCGTGTCTTCTCGTCTCGGAGTCACCTAGTGCAG,10300 fluorescence intensity (a.u.)
6,GCTCTCTCTATTCTGTTTGCAATCCTCTTCACCCTAATTTCGGAGTCACCTAGTGCAG,14300 fluorescence intensity (a.u.)
7,TTTCGTTTGTGGATTTGCATCGGAGTTGCCCCATGTTCGTCGGAGTCACCTAGTGCAG,8380 fluorescence intensity (a.u.)
8,TCTTGCTGCTCCCTCCACTGCTCGCCTCGCCTCCGCCACCCGGAGTCACCTAGTGCAG,9580 fluorescence intensity (a.u.)
9,TCATACTCTTCCTCTCTCTCACTCTGTCTCACTCTTCTTCCGGAGTCACCTAGTGCAG,9330 fluorescence intensity (a.u.)
10,CTCCGCCGCCGTCGCCGCCGCCTCCACCTCCCGTACCCTCCGGAGTCACCTAGTGCAG,8460 fluorescence intensity (a.u.)
11,CTATTTTCCGGCCATTTTACCCTTTTACTATCATCCAACGCGGAGTCACCTAGTGCAG,10100 fluorescence intensity (a.u.)
12,TAATTTTAAGGCTTTTATCGATATTTATTTTTTCGCCAATCGGAGTCACCTAGTGCAG,10600 fluorescence intensity (a.u.)
13,CCTCACTCCACAGTCCACACCACTGCACCGCACTCTCTCTCGGAGTCACCTAGTGCAG,10600 fluorescence intensity (a.u.)
14,TGCCCACACAATCCACTCATGACTATATCTATCTATCTATCGGAGTCACCTAGTGCAG,10600 fluorescence intensity (a.u.)
15,TTTTGCTATATATATTTTTGTCGATATTTTTTTCTAATATCGGAGTCACCTAGTGCAG,10400 fluorescence intensity (a.u.)
16,AAAGCCAGCTTGTCACTGCGCTTCTTTCCTAGTTTCCTTCCGGAGTCACCTAGTGCAG,9130 fluorescence intensity (a.u.)
17,ATCTGGTCTGCAGGTATTTTCTTTGTATTGTATATTTCTACGGAGTCACCTAGTGCAG,10000 fluorescence intensity (a.u.)
18,CAGTCTGTCTTGGTCTCTTTGTTCAGTCATGGTCTCTCTTCGGAGTCACCTAGTGCAG,19000 fluorescence intensity (a.u.)
19,GCGATCGAGCAGGGTCGCCGTCGTTCGTCCTGCTGCTGCTCGGAGTCACCTAGTGCAG,8520 fluorescence intensity (a.u.)
20,CCATTATAGCTTTGGATCGAATGCTTTTGTTTATTTTGACCGGAGTCACCTAGTGCAG,9150 fluorescence intensity (a.u.)
21,AGTATTATTCCGTTTGTGAACCTCGTCGACGACGACGACGCGGAGTCACCTAGTGCAG,10400 fluorescence intensity (a.u.)
22,GACCCTGAGCGGCCGCGCCATCGCCTCCGCCTCCGCCGACCGGAGTCACCTAGTGCAG,9030 fluorescence intensity (a.u.)
23,TTTTCAAGCGTTACCGCGATTGCTTACTCTTTGGTTTGAACGGAGTCACCTAGTGCAG,8530 fluorescence intensity (a.u.)
24,GAGTGGCATATTGTTCTTTTTCTCTTATATTGTAATTTTTCGGAGTCACCTAGTGCAG,10600 fluorescence intensity (a.u.)
25,AAATCTACCCGTGTTTTGTATGCATGCGGCCGATCCTTATCGGAGTCACCTAGTGCAG,8140 fluorescence intensity (a.u.)
26,AGAGAGAGCGCTCTGGTACCCGTTCCCTCCGCCGCTCTCGCGGAGTCACCTAGTGCAG,8460 fluorescence intensity (a.u.)
27,AGCGTAGGTTGCAGTCTTGCAGAGATCTCAGTGTAAATTTCGGAGTCACCTAGTGCAG,8690 fluorescence intensity (a.u.)

# Individual results from the entries so far.
# In binding signal, CAGTCTGTCTTGGTCTCTTTGTTCAGTCATGGTCTCTCTTCGGAGTCACCTAGTGCAG is listed with 19000 fluorescence intensity (a.u.)
# In binding signal, AGTATTATTCCGTTTGTGAACCTCGTCGACGACGACGACGCGGAGTCACCTAGTGCAG is listed with 10400 fluorescence intensity (a.u.)
